Reference: article PMC4558565
Residue numbers refer to the chain shown, from its start. Results are given in words; binding and its absence hold for the method and conditions named. For some of these results: Binding seen in cells or lysates may run through a third protein. Some binding calls cover weakened binding; strength is not graded here. Tags and fused reporters may be left off the sequences shown. Each block holds one binder with its values, some of them ahead of it.

Key:
[1] = target: T1, AKIN10 (LexA-BD yeast two-hybrid fusion) (Arabidopsis thaliana) (UniProt Q38997); assay: two-hybrid; yeast strain L40; LexA-BD fusions (pBTM117) as baits, GAL4-AD-bZIP63 (pACTIIJ) as prey; lacZ reporter read with ONPG in cell extracts; auto-activation measured with empty pACTIIJ
T1 sequence: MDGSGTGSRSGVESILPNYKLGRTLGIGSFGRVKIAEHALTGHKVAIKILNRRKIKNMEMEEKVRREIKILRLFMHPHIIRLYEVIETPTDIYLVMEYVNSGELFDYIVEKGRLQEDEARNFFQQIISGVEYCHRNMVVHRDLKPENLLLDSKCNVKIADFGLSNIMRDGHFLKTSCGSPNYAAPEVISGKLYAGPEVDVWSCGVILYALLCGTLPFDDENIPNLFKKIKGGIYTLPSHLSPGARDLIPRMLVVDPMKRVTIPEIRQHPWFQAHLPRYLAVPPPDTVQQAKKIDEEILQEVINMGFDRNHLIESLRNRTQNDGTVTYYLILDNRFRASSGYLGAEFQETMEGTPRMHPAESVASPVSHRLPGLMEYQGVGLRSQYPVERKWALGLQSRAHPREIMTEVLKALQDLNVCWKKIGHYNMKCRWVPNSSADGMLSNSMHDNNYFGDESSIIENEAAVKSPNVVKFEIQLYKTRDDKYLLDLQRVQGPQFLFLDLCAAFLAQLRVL

[2] = target: T2, AKIN11 (LexA-BD yeast two-hybrid fusion) (Arabidopsis thaliana) (UniProt P92958); assay: as above
T2 sequence: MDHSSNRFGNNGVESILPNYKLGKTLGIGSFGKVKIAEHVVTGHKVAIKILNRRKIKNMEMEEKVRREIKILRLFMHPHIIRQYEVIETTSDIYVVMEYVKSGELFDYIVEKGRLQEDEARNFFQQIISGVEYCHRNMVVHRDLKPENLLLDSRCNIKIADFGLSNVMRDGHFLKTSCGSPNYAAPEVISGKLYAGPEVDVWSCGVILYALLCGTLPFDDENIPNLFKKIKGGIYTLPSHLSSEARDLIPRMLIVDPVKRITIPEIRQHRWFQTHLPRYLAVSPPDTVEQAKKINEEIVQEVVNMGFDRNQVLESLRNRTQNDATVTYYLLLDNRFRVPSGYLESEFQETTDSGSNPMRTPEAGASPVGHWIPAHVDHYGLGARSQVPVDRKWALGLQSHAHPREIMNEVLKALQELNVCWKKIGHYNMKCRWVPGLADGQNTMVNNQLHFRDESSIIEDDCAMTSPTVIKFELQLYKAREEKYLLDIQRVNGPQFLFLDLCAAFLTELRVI

[3] = target: T3, SNF4 (LexA-BD yeast two-hybrid fusion) (Arabidopsis thaliana) (UniProt Q944A6); assay: as above
T3 sequence: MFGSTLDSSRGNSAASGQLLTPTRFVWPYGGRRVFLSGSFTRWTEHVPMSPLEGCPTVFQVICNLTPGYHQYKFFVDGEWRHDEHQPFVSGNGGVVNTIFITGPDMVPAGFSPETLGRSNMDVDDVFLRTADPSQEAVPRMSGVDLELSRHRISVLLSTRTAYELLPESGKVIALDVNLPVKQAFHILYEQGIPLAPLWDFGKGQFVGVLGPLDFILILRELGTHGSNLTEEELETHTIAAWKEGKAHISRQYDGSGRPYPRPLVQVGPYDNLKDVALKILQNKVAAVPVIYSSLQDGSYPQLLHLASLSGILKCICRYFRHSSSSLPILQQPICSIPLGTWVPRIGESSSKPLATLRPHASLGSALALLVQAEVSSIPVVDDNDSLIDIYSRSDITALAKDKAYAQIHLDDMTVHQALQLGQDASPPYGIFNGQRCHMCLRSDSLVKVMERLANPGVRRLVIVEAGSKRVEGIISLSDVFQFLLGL

[4] = target: bZIP63 (yeast two-hybrid fusion) (Arabidopsis thaliana) (UniProt B9DGI8); assay: as above
[5] = target: T4, AKIN10 (split-CFP BiFC fusion) (Arabidopsis thaliana) (UniProt Q38997); assay: split reporter; BiFC with split CFP in transiently transformed Nicotiana tabacum leaf epidermis; confocal microscopy 48 hr after infiltration, same settings for each construct
T4 sequence: T1 sequence

[6] = target: T5, AKIN11 (split-CFP BiFC fusion) (Arabidopsis thaliana) (UniProt P92958); assay: as above
T5 sequence: T2 sequence

[7] = target: T6, SNF4 (split-CFP BiFC fusion) (Arabidopsis thaliana) (UniProt Q944A6); assay: as above
T6 sequence: T3 sequence

[8] = target: bZIP63 (split-CFP BiFC fusion) (Arabidopsis thaliana) (UniProt B9DGI8); assay: as above
[9] = target: T7, bZIP1 fused to the N-terminal moiety of VENUS (multi-color BiFC) (Arabidopsis thaliana) (UniProt Q9FGX2); assay: split reporter; multi-color BiFC in transiently transformed Nicotiana tabacum leaves; bZIP11-CFP-N, bZIP1-VENUS-N and CFP-C-bZIP63 (wt or S29/294/300A) from one plasmid, AKIN10-mCherry co-transformed; VENUS/CFP ratio in nuclei with mCherry signal, 48 hr after infiltration
T7 sequence: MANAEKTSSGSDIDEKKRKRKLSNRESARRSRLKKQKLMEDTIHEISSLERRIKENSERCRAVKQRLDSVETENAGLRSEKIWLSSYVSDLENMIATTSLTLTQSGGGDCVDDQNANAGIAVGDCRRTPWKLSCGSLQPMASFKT

[10] = target: T8, bZIP11 fused to the N-terminal moiety of CFP (multi-color BiFC) (Arabidopsis thaliana) (UniProt O65683); assay: as above
T8 sequence: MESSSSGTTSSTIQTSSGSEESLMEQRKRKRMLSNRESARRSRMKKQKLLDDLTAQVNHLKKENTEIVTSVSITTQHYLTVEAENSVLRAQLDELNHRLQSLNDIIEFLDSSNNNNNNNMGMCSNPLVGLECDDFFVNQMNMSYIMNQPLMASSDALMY

[11] = target: T9, BD-bZIP63 S29/294/300A (protoplast two-hybrid) (Arabidopsis thaliana) (UniProt B9DGI8); assay: two-hybrid; protoplast two-hybrid (P2H) in Arabidopsis leaf protoplasts; GAL4-AD and GAL4-BD fusions, GAL-UAS4::GUS reporter normalised to 35S::NAN; without and with co-transformation of AKIN10; 16 hr
T9 sequence: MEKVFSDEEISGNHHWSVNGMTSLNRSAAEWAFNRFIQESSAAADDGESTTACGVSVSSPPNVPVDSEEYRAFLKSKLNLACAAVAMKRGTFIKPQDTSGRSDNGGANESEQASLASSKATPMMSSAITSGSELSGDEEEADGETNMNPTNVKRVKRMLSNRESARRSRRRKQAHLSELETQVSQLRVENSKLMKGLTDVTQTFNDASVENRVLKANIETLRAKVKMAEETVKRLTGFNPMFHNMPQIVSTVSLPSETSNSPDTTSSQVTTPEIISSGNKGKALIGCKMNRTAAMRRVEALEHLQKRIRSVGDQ

[12] = target: T10, BD-bZIP63 S29A (protoplast two-hybrid) (Arabidopsis thaliana) (UniProt B9DGI8); assay: as above
T10 sequence: T9 sequence with A294S, A300S

[13] = target: T11, BD-bZIP63 with the two C-terminal sites mutated, S294/300A (protoplast two-hybrid) (Arabidopsis thaliana) (UniProt B9DGI8); assay: as above
T11 sequence: T9 sequence with A29S

[14] = target: T12, bZIP1 fused to the Gal4-BD (protoplast two-hybrid) (Arabidopsis thaliana) (UniProt Q9FGX2); assay: as above
T12 sequence: T7 sequence

[15] = target: T13, bZIP11 (protoplast two-hybrid fusion) (Arabidopsis thaliana) (UniProt O65683); assay: as above
T13 sequence: T8 sequence

[16] = target: T14, bZIP63 (protoplast two-hybrid fusion) (Arabidopsis thaliana) (UniProt B9DGI8); assay: as above
T14 sequence: T9 sequence with A29S, A294S, A300S

B4: bZIP63 (protoplast two-hybrid fusion) (protein, UniProt B9DGI8 1-314)
chain: T9 sequence with A29S, A294S, A300S
binding [11]: binds
binding [12]: binds
binding [13]: binds
binding [14]: binds
binding [15]: binds
binding [16]: binds

B5: bZIP11 (protoplast two-hybrid fusion) (protein, UniProt O65683 1-159)
chain: T8 sequence
binding [11]: binds
binding [12]: binds
binding [13]: binds
binding [16]: binds

Next, values leading:

binding [1]: binds
binding [2]: binds weakly
binding [3]: binds
binding [4]: binds
B1: bZIP63 (yeast two-hybrid fusion) (protein, UniProt B9DGI8 1-314)
chain: T9 sequence with A29S, A294S, A300S

binding [5]: binds
binding [6]: binds weakly
binding [7]: binds
binding [8]: binds
binding [9]: binds
binding [10]: binds
B2: bZIP63 (split-CFP BiFC fusion) (protein, UniProt B9DGI8 1-314)
chain: T9 sequence with A29S, A294S, A300S

binding [9]: binds
binding [10]: binds
B3: bZIP63 S29/294/300A fused to the C-terminal moiety of CFP (multi-color BiFC) (protein, UniProt B9DGI8 1-314)
chain: T9 sequence
